The values below come from PubChem BioAssay AID1487 (National Center for Advancing Translational Sciences (NCATS), 2009).

Structures are written as SMILES. “And” between values parts separate entries of the source, which are not always exact repeats. Equal entries are not always repeated. The list shows a part of the results. These are further read-outs of the screen, such as a control signal, another cell line or another target. No call is given for them. The list favours compounds with an active or inconclusive main result. Potencies come from curve fits of mixed quality, noted in brackets.

A short description of the experiment: qHTS Assay for Modulators of Lamin A Splicing. The following applies: HeLa LMNA splicing GFP/RFP minigene ratio, 48 h. A digest of the protocol:
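Read-out is the ratio of GFP to DsRed2 object intensity, acquired by 488 nm laser-scanning cytometry on HeLa lamin A-EGFP minigene reporter cells. Compound incubation 48 hrs at 37 °C in Opti-MEM with 2% FBS; DMSO 0.5% final.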
Background: Quantitative high-throughput screening tests each substance at several concentrations.

The mark [1] stands for this setting: measured here: RFP viability control channel.
[2] abbreviates: measured here: GFP splicing reporter channel.

Regarding `Cc1ccc(CCNC(=O)C2CCCN(c3nc4ccccc4o3)C2)cc1` (stereo not drawn), the AC50 under setting [1] was 10 µM [rising, partial curve].

In the case of `CN(C(=S)Nc1ccc(Oc2ccccc2)cc1)c1ccc(O)cc1`, the AC50 was 7.94 µM [falling, partial curve, poor fit] under setting [2] and 3.16 µM [falling, full curve, poor fit] under setting [1].

Take `Nc1nc(-c2cccc(NS(=O)(=O)c3ccccc3)c2)cs1`: the AC50 under setting [1] was 11.2 µM [rising, partial curve, poor fit].

Take `CC1Cc2ccccc2N1C(=O)CSC1=NCCS1` (stereo not drawn): under setting [1], the AC50 was 6.31 µM [rising, full curve, poor fit].

For `CCN(CCCNC(=O)COc1cc(=O)n(CC)c2ccccc12)c1ccccc1`, the AC50 under setting [1] was 31.6 µM [rising, single point].

As for `CC(C)CNC(=O)COc1ncnc2sccc12`, the AC50 runs as follows: under setting [2], 0.02 µM [falling, full curve, poor fit]; under setting [1], 3.98 µM [falling, single point].

Regarding `O=C1N=C2N(CCN3CCCCC3)c3ccccc3N2/C1=C\c1ccc([N+](=O)[O-])o1`, the AC50 runs as follows: under setting [2], 2.24 µM [falling, full curve]; under setting [1], 5.01 µM [falling, partial curve].

Turning to `O=S(=O)(c1ccccc1Cl)N1CCCC1c1nc(-c2ccc(Cl)cc2)no1` (stereo not drawn), under setting [1], the AC50 was 10 µM [rising, partial curve, poor fit].

Take `CC(C)C[C@H](NC(=O)OC(C)(C)C)c1nnc(SCC(=O)Nc2ccc(Br)cc2)o1`: the AC50 by setting is: under setting [2], 14.1 µM [rising, single point]; under setting [1], 8.91 µM [rising, partial curve].

In the case of `COc1cccc(N/C=C/C(=O)c2ccc(Cl)cc2)c1`, under setting [2], the AC50 is 14.1 µM [rising, partial curve].

`CSc1ccc(CN(C)CC(=O)Nc2ccccc2Br)cc1`: the AC50 is, setting by setting: under setting [2], 31.6 µM [rising, single point]; under setting [1], 35.5 µM [rising, single point].

With `Cc1cccc2cc(CN(Cc3cccnc3)C(=S)NCCCN(C)C)c(=O)[nH]c12`, the AC50 under setting [1] was 5.62 µM [falling, single point].

With `Cn1c(SCC(=O)Nc2ccccc2)nc2c([nH]c3ccccc32)c1=O`, under setting [1], the AC50 is 12.6 µM [falling, partial curve].

Turning to `O=S(=O)(N/N=C/c1ccc(Cl)cc1)c1ccc(Cc2ncc(C(F)(F)F)cc2Cl)s1`, the AC50 under setting [1] is 17.8 µM [rising, single point].

Take `CCc1c(C)sc(NC(=O)Cn2nc(C(F)(F)F)c3c2CCCC3)c1C#N`: the AC50 under setting [1] was 11.2 µM [rising, partial curve].

With `COc1cccc(NC(=O)c2ccccc2-c2nc(-c3ccc(Cl)cc3)no2)c1`, the AC50 by setting is: under setting [2], 15.8 µM [rising, single point]; under setting [1], 31.6 µM [rising, single point].

Regarding `CCCn1c(-c2ccc(OC)cc2)nc2ccccc21`, the AC50 under setting [2] was 17.8 µM [rising, single point] and the AC50 under setting [1] is 22.4 µM [rising, partial curve].

For the molecule `O=C(N/N=C\C=C\c1ccco1)c1cc(-c2ccc3ccccc3c2)n[nH]1`, the AC50 is, setting by setting: under setting [2], 5.01 µM [falling, partial curve, poor fit]; under setting [1], 3.55 µM [falling, partial curve, poor fit].

In the case of `Cc1cc(Cl)c(S(=O)(=O)N2CCCCCC2)cc1OCC(N)=O`, the AC50 under setting [1] is 15.8 µM [rising, single point].

Regarding `CCOC(=O)c1cccc(Nc2ncnc3ccccc23)c1`, the AC50 under setting [1] was 12.6 µM [rising, partial curve].

For `COc1ccc(CC(NC(C)=O)C(=O)NC2CCN(c3c(Cc4ccccc4)c(C)nc4ncnn34)CC2)cc1OC` (stereo not drawn), the AC50 under setting [1] was 0.00891 µM [falling, full curve].

With `O=C(/C=C/c1ccc(O)c(O)c1)OCCc1ccccc1`, the concentration at half-maximal activity (AC50) by setting is: under setting [2], 2.82 µM [rising, partial curve] and 2.82 µM [falling, full curve]; under setting [1], 2.82 µM [falling, full curve].

As for `COc1cccc(NC(=O)Cn2nc(-c3ccncc3)ccc2=O)c1`, the AC50 under setting [2] was 0.0224 µM [falling, full curve, poor fit].

Regarding `C=CCn1c(SCC(=O)OCC)nc(C(F)(F)F)cc1=O`, the AC50 under setting [2] was 1.78 µM [rising, partial curve] and the AC50 under setting [1] was 1.58 µM [rising, partial curve].

`O=C(CCc1ccc(Oc2cc([N+](=O)[O-])cc([N+](=O)[O-])c2)cc1)NC1CCCC1`: the AC50 by setting is: under setting [2], 17.8 µM [rising, single point]; under setting [1], 35.5 µM [rising, single point].

On to `COc1ccc(Cn2c(CNS(=O)(=O)c3ccc(Cl)s3)nc3cccnc32)cc1`, for which the AC50 under setting [2] is 0.447 µM [rising, partial curve].

Turning to `CCCOc1cc(C)c(S(=O)(=O)NCCOC)cc1C`, under setting [1], the AC50 was 22.4 µM [rising, single point].

On to `O=C(/C=C/c1ccc(Cl)cc1Cl)n1cccn1`, for which the AC50 under setting [2] was 35.5 µM [falling, single point] and the AC50 under setting [1] was 20 µM [falling, partial curve].

For the molecule `CC(C)=CC(=O)N1CCC(N2CCC(C(=O)N3CCOCC3)CC2)CC1`, the AC50 under setting [1] is 35.5 µM [falling, single point].

`COc1ccc(NS(=O)(=O)c2ccc(O)c(NC(=O)c3ccc(S(=O)(=O)N4CCCCCC4)cc3)c2)cc1`: the AC50 under setting [1] was 2.82 µM [rising, full curve].

Regarding `CCCCN(CCCC)C(=S)N/N=C/c1c(C)[nH]n(-c2ccccc2)c1=O`, the AC50 under setting [2] is 35.5 µM [falling, single point] and the concentration at half-maximal activity (AC50) under setting [1] was 1.12 µM [falling, full curve, poor fit].

With `Cc1cccc(OCCCCc2c(C)n[nH]c2C)c1C`, the AC50 under setting [1] was 35.5 µM [rising, single point].

With `CN(C)c1ccc(S(=O)(=O)N(C)C)cc1[N+](=O)[O-]`, the AC50 under setting [2] is 0.224 µM [falling, full curve, poor fit].

Take `CC(=O)c1cc(F)c(N2CCN(C(=O)COc3ccc(F)cc3)CC2)cc1C`: the AC50 under setting [1] was 28.2 µM [rising, single point].

For the molecule `CC1=NNC(=O)C1CCC(=O)N/N=C\c1ccc(Cl)c(Cl)c1` (stereo not drawn), the concentration at half-maximal activity (AC50) under setting [1] is 0.631 µM [falling, single point].

`NCC(O)CC(=O)O` (stereo not drawn): the concentration at half-maximal activity (AC50) under setting [2] is 1.26 µM [falling, single point] and the AC50 under setting [1] is 35.5 µM [falling, single point].

Regarding `O=C(CSc1nnc2[nH]c(=O)cc(-c3ccccc3)n12)Nc1ccccc1C(F)(F)F`, the AC50 under setting [1] was 22.4 µM [falling, partial curve, poor fit].

Consider `COc1ccc(CCNC(=O)c2cc3c(=O)n4ccccc4nc3n2C)cc1`, for which, under setting [2], the concentration at half-maximal activity (AC50) was 12.6 µM [falling, partial curve].

Take `CC(=O)OCC(CCn1cnc2cnc(N)nc21)COC(C)=O`: the AC50 under setting [2] was 35.5 µM [falling, single point].

As for `NNc1nncc2ccccc12`, the AC50 under setting [2] is 0.000316 µM [falling, full curve, poor fit] and the concentration at half-maximal activity (AC50) under setting [1] is 3.16 µM [falling, single point].

In the case of `O=C(c1cccs1)N(Cc1ccco1)c1nc(-c2ccc(F)cc2)cs1`, the half-maximal activity concentration (AC50) under setting [1] was 35.5 µM [rising, single point].

In the case of `CCOC(=O)c1csc(NC(=O)c2ccc(OC)c(OC)c2)n1`, under setting [1], the AC50 is 3.98 µM [falling, full curve, poor fit].

On to `COC(=O)c1ccccc1Sc1c(/C=N/OC(=O)c2ccccc2)c(C(F)(F)F)nn1C`, for which, under setting [1], the AC50 was 10 µM [rising, partial curve, poor fit].

Turning to `CCCc1ccc(C(=O)NNc2ccc(F)cc2)cc1`, under setting [2], the AC50 was 0.282 µM [rising, partial curve, poor fit].

For the molecule `CCOc1ccc(C(C)NC(=O)C2CCCC2)cc1` (stereo not drawn), the AC50 under setting [1] was 6.31 µM [rising, single point].

With `O=C1c2cccc3c(Cl)ccc(c23)C(=O)N1O`, the AC50 under setting [2] was 35.5 µM [falling, single point].

`CCCCc1c(O)c2ccccc2n(CCCC)c1=O`: the AC50 is 11.2 µM [rising, single point] under setting [2] and 20 µM [rising, single point] under setting [1].

With `CCN(CC)S(=O)(=O)c1ccc(Cl)c(NC(=O)COc2ccc3c(C)cc(=O)oc3c2)c1`, the AC50 under setting [1] was 2 µM [rising, partial curve, poor fit].

Take `COc1ccc(C2=Nn3c(nnc3-c3ccncc3)SC2)cc1OC`: the AC50 under setting [1] is 35.5 µM [rising, single point].

Regarding `O=C(NCc1ccc(Cl)cc1)c1ncn[nH]1`, the half-maximal activity concentration (AC50) under setting [1] was 4.47 µM [falling, single point].

Consider `O=C(NCCCc1ccccc1)c1cccc([N+](=O)[O-])c1`, for which the AC50 under setting [2] was 2.24 µM [rising, partial curve, poor fit].

Take `Cc1nc(Nc2ccc3c(c2)OCCO3)c2oc3ccccc3c2n1`: the AC50 is 35.5 µM [rising, single point] under setting [2] and 35.5 µM [rising, single point] under setting [1].

For `Cc1ccc(OCCSc2cc(C)nc(N)n2)cc1`, the AC50 was 17.8 µM [rising, partial curve] under setting [2] and 20 µM [rising, single point] under setting [1].

Regarding `O=C(NCc1ccccc1)c1ccc(CSc2nc3cccnc3n2Cc2ccccc2)cc1`, the AC50 was 0.02 µM [falling, full curve, poor fit] under setting [2] and 0.02 µM [falling, full curve, poor fit] under setting [1].

Regarding `O=C1C2C3c4ccccc4C(c4ccccc43)C2c2nc3ccccc3n21` (stereo not drawn), the AC50 under setting [1] was 20 µM [rising, single point].

Turning to `CSc1ccccc1NC(=O)CN1CCCCC1`, under setting [2], the AC50 is 0.0398 µM [falling, full curve, poor fit].

Regarding `COc1ccc(N2CCN(C(=O)c3cccc(Cn4cc(Cl)cn4)c3)CC2)cc1`, under setting [1], the AC50 was 12.6 µM [rising, partial curve].

In the case of `Cc1cc(C(=O)COC(=O)Cc2n[nH]c(=O)c3ccccc23)c(C)n1-c1cccc(C(F)(F)F)c1`, the concentration at half-maximal activity (AC50) runs as follows: under setting [2], 14.1 µM [rising, single point]; under setting [1], 15.8 µM [rising, partial curve, poor fit].

For orientation: AC50 means the concentration giving half of the maximal activity seen.
